{"source": "PubChem BioAssay AID1508587 | Peter MacCallum Cancer Centre – 2020", "screen": "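Retest of knockdowns boosting BRAF inhibitor action on lactate release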 (follow-up of hits)", "cell system": "human WM266.4 melanoma cells with a BRAF V600 mutation", "reagent": "single siRNA against human genes, 25 nM", "duration": "96 h", "treatment": "vemurafenib 300 nM (about IC25), given 48 h after transfection for 48 h", "detection": "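Per-cell lactate from absorbance divided by DAPI nucleus counts, compared with and without vemurafenib, relative to non-targeting siRNA, mean of 2 replicates; nuclear counts also give cell number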", "scale": "lactate per cell, drug vs no drug: higher = less drug-induced drop in lactate per cell; lactate per cell with vemurafenib: higher = more lactate per cell under drug", "active means": "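Enhancer call for any duplex whose drug versus no-drug per-cell lactate ratio is below 0.55 (2 SD beneath non-targeting average); genes confirmed when at least 2 of their 4 duplexes qualify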", "note": "Here is one part, drawn at random, of about 1,600 reagents tested. Over the whole deposit, 623 (39%) got an active call. 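Calls are for each duplex; lactate ratios contain extreme outliers.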 Entries without a mark were called inactive. Reagents against one gene are numbered here. Not all columns of the deposit are shown. Reagent sequences are not shown."}
{"target gene": "GPR101 (G protein-coupled receptor 101)", "reagent": 1, "lactate per cell, drug vs no drug": "0.3 (active)", "lactate per cell with vemurafenib": 0.75}
{"target gene": "GPR101 (G protein-coupled receptor 101)", "reagent": 2, "lactate per cell, drug vs no drug": 0.69, "lactate per cell with vemurafenib": 0.99}
{"target gene": "GPR101 (G protein-coupled receptor 101)", "reagent": 3, "lactate per cell, drug vs no drug": 0.64, "lactate per cell with vemurafenib": 0.94}
{"target gene": "GPR101 (G protein-coupled receptor 101)", "reagent": 4, "lactate per cell, drug vs no drug": 1.12, "lactate per cell with vemurafenib": 2.51}
{"target gene": "ANKRD26 (ankyrin repeat domain 26)", "reagent": 1, "lactate per cell, drug vs no drug": 0.65, "lactate per cell with vemurafenib": 1.34}
{"target gene": "ANKRD26 (ankyrin repeat domain 26)", "reagent": 2, "lactate per cell, drug vs no drug": "0.38 (active)", "lactate per cell with vemurafenib": 1.23}
{"target gene": "ANKRD26 (ankyrin repeat domain 26)", "reagent": 3, "lactate per cell, drug vs no drug": 0.58, "lactate per cell with vemurafenib": 0.5}
{"target gene": "ANKRD26 (ankyrin repeat domain 26)", "reagent": 4, "lactate per cell, drug vs no drug": 0.6, "lactate per cell with vemurafenib": 2.84}
{"target gene": "TSLIG3C (tRNA splicing ligase complex subunit 3C)", "reagent": 1, "lactate per cell, drug vs no drug": 0.6, "lactate per cell with vemurafenib": 1.37}
{"target gene": "TSLIG3C (tRNA splicing ligase complex subunit 3C)", "reagent": 2, "lactate per cell, drug vs no drug": "0.5 (active)", "lactate per cell with vemurafenib": 0.93}
{"target gene": "TSLIG3C (tRNA splicing ligase complex subunit 3C)", "reagent": 3, "lactate per cell, drug vs no drug": 1.81, "lactate per cell with vemurafenib": 5.02}
{"target gene": "TSLIG3C (tRNA splicing ligase complex subunit 3C)", "reagent": 4, "lactate per cell, drug vs no drug": 0.57, "lactate per cell with vemurafenib": 1.11}
{"target gene": "LEMD2 (LEM domain nuclear envelope protein 2)", "reagent": 1, "lactate per cell, drug vs no drug": 1.02, "lactate per cell with vemurafenib": 5.41}
{"target gene": "LEMD2 (LEM domain nuclear envelope protein 2)", "reagent": 2, "lactate per cell, drug vs no drug": 0.72, "lactate per cell with vemurafenib": 1.14}
{"target gene": "LEMD2 (LEM domain nuclear envelope protein 2)", "reagent": 3, "lactate per cell, drug vs no drug": 0.63, "lactate per cell with vemurafenib": 1.68}
{"target gene": "LEMD2 (LEM domain nuclear envelope protein 2)", "reagent": 4, "lactate per cell, drug vs no drug": 0.72, "lactate per cell with vemurafenib": 1.36}

4 entries from above, limited to “lactate per cell with vemurafenib”.
ANKRD26 (ankyrin repeat domain 26) #4 = 2.84
TSLIG3C (tRNA splicing ligase complex subunit 3C) #1 = 1.37
TSLIG3C (tRNA splicing ligase complex subunit 3C) #2 = 0.93 (active)
TSLIG3C (tRNA splicing ligase complex subunit 3C) #3 = 5.02

Continued.
{"target gene": "DPYSL2 (dihydropyrimidinase like 2)", "reagent": 1, "lactate per cell, drug vs no drug": 1.12, "lactate per cell with vemurafenib": 3.46}
{"target gene": "DPYSL2 (dihydropyrimidinase like 2)", "reagent": 2, "lactate per cell, drug vs no drug": "0.11 (active)", "lactate per cell with vemurafenib": 0.11}
{"target gene": "DPYSL2 (dihydropyrimidinase like 2)", "reagent": 3, "lactate per cell, drug vs no drug": "0.52 (active)", "lactate per cell with vemurafenib": 0.63}
{"target gene": "DPYSL2 (dihydropyrimidinase like 2)", "reagent": 4, "lactate per cell, drug vs no drug": 0.59, "lactate per cell with vemurafenib": 1.26}
{"target gene": "USP37 (ubiquitin specific peptidase 37)", "reagent": 1, "lactate per cell, drug vs no drug": "0.53 (active)", "lactate per cell with vemurafenib": 1.92}
{"target gene": "USP37 (ubiquitin specific peptidase 37)", "reagent": 2, "lactate per cell, drug vs no drug": "0.52 (active)", "lactate per cell with vemurafenib": 1.25}
{"target gene": "USP37 (ubiquitin specific peptidase 37)", "reagent": 3, "lactate per cell, drug vs no drug": "0.42 (active)", "lactate per cell with vemurafenib": 1.19}
{"target gene": "USP37 (ubiquitin specific peptidase 37)", "reagent": 4, "lactate per cell, drug vs no drug": "0.4 (active)", "lactate per cell with vemurafenib": 0.52}
{"target gene": "ATP2C1 (ATPase secretory pathway Ca2+ transporting 1)", "reagent": 1, "lactate per cell, drug vs no drug": "0.4 (active)", "lactate per cell with vemurafenib": 0.86}
{"target gene": "ATP2C1 (ATPase secretory pathway Ca2+ transporting 1)", "reagent": 2, "lactate per cell, drug vs no drug": "0.45 (active)", "lactate per cell with vemurafenib": 0.58}
{"target gene": "ATP2C1 (ATPase secretory pathway Ca2+ transporting 1)", "reagent": 3, "lactate per cell, drug vs no drug": "0.53 (active)", "lactate per cell with vemurafenib": 0.94}
{"target gene": "ATP2C1 (ATPase secretory pathway Ca2+ transporting 1)", "reagent": 4, "lactate per cell, drug vs no drug": 0.87, "lactate per cell with vemurafenib": 2.16}
{"target gene": "CSKMT (citrate synthase lysine methyltransferase)", "reagent": 1, "lactate per cell, drug vs no drug": 0.74, "lactate per cell with vemurafenib": 2.16}
{"target gene": "CSKMT (citrate synthase lysine methyltransferase)", "reagent": 2, "lactate per cell, drug vs no drug": "0.47 (active)", "lactate per cell with vemurafenib": 0.8}
{"target gene": "CSKMT (citrate synthase lysine methyltransferase)", "reagent": 3, "lactate per cell, drug vs no drug": 0.57, "lactate per cell with vemurafenib": 0.65}
{"target gene": "CSKMT (citrate synthase lysine methyltransferase)", "reagent": 4, "lactate per cell, drug vs no drug": 0.76, "lactate per cell with vemurafenib": 0.94}
{"target gene": "CDK14 (cyclin dependent kinase 14)", "reagent": 1, "lactate per cell, drug vs no drug": 0.55, "lactate per cell with vemurafenib": 3.14}
{"target gene": "CDK14 (cyclin dependent kinase 14)", "reagent": 2, "lactate per cell, drug vs no drug": "0.49 (active)", "lactate per cell with vemurafenib": 1.14}
{"target gene": "CDK14 (cyclin dependent kinase 14)", "reagent": 3, "lactate per cell, drug vs no drug": 0.99, "lactate per cell with vemurafenib": 2.31}
{"target gene": "CDK14 (cyclin dependent kinase 14)", "reagent": 4, "lactate per cell, drug vs no drug": 1.02, "lactate per cell with vemurafenib": 3.57}
